Measurements: publication PMC7764042
These are yes or no findings as the source states them, for the method shown.

By UniProt entry, the sequences of proteins in these tests, tags left out. Residues count along the entry.
UniProt P23297, residues 2-94: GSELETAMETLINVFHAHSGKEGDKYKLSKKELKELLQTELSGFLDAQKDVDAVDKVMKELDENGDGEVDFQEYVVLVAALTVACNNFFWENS
UniProt P26447: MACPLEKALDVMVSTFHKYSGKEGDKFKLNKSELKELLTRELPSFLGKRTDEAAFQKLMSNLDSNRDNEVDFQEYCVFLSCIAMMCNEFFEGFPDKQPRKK
UniProt P60903: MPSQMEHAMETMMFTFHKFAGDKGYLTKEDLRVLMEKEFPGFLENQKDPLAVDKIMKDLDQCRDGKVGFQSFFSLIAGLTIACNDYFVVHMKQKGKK

What was measured:
[1] = target: recombinant human interferon beta-1a (human) (UniProt P01574); assay: condition: only with 1 mM EDTA (Ca^2+-depleted S100), 1 µM; SPR; IFN-β immobilised by amine coupling; Ca^2+-depleted S100 as analyte (1 µM); 25 °C; 10 mM HEPES, 150 mM NaCl, 0.01% TWEEN 20, pH 7.4, 1 mM EDTA; both purified
[2] = target: recombinant human interferon beta-1a (human) (UniProt P01574); assay: SPR; IFN-β immobilised on ProteOn GLH chip by amine coupling; Ca^2+-loaded S100 as analyte (0.25–5 µM S100A1, 0.5–5 µM S100A4/A6, 5 µM other S100); 25 °C; 10 mM HEPES, 150 mM NaCl, 0.01% TWEEN 20, pH 7.4, 1 mM CaCl2; heterogeneous ligand model; both purified
[3] = target: recombinant human interferon beta-1a (human) (UniProt P01574); assay: SPR; IFN-β immobilised by amine coupling; Ca^2+-depleted S100 as analyte (1 µM); 25 °C; 10 mM HEPES, 150 mM NaCl, 0.01% TWEEN 20, pH 7.4, 1 mM EDTA; both purified

With “recombinant human S100A1 (from UniProt P23297 2-94)” the binding [1] was “no binding”.

With “recombinant human S100A4 (from UniProt P26447 1-101)” the binding [1] was “no binding”.

“recombinant human S100A10 (from UniProt P60903 1-97)” was tested, and the binding [2] was “no binding (tested: 5 µM; Kd not below 10 µM)” and the binding [3] was “no binding (tested: 1 µM (1 mM EDTA))”.
